Measurements as given in publication PMC11695708.
Results are given in words; binding and its absence hold for the method and conditions named. Binding seen in cells or lysates may run through a third protein. Some binding calls cover weakened binding; strength is not graded here.

Sequences of proteins named here, by UniProt entry; tags and fusion partners are left off.
UniProt O00429: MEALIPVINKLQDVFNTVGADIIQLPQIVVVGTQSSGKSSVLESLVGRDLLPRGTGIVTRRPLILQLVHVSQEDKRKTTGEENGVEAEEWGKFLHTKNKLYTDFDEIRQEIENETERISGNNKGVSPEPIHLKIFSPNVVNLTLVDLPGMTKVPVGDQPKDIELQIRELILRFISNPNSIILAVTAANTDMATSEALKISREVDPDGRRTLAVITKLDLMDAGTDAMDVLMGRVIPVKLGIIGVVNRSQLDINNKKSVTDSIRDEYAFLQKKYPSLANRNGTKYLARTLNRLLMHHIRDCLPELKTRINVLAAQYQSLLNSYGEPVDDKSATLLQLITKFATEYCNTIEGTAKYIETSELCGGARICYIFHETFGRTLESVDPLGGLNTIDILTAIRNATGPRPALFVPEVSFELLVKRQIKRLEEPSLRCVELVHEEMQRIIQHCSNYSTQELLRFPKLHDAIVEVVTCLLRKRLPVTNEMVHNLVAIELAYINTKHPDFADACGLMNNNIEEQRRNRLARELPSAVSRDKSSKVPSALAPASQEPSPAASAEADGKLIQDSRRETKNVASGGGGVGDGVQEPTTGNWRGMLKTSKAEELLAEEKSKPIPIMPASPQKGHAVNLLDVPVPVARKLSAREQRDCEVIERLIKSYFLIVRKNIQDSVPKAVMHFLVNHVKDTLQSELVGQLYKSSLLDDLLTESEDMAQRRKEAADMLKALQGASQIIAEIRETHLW
UniProt P21333: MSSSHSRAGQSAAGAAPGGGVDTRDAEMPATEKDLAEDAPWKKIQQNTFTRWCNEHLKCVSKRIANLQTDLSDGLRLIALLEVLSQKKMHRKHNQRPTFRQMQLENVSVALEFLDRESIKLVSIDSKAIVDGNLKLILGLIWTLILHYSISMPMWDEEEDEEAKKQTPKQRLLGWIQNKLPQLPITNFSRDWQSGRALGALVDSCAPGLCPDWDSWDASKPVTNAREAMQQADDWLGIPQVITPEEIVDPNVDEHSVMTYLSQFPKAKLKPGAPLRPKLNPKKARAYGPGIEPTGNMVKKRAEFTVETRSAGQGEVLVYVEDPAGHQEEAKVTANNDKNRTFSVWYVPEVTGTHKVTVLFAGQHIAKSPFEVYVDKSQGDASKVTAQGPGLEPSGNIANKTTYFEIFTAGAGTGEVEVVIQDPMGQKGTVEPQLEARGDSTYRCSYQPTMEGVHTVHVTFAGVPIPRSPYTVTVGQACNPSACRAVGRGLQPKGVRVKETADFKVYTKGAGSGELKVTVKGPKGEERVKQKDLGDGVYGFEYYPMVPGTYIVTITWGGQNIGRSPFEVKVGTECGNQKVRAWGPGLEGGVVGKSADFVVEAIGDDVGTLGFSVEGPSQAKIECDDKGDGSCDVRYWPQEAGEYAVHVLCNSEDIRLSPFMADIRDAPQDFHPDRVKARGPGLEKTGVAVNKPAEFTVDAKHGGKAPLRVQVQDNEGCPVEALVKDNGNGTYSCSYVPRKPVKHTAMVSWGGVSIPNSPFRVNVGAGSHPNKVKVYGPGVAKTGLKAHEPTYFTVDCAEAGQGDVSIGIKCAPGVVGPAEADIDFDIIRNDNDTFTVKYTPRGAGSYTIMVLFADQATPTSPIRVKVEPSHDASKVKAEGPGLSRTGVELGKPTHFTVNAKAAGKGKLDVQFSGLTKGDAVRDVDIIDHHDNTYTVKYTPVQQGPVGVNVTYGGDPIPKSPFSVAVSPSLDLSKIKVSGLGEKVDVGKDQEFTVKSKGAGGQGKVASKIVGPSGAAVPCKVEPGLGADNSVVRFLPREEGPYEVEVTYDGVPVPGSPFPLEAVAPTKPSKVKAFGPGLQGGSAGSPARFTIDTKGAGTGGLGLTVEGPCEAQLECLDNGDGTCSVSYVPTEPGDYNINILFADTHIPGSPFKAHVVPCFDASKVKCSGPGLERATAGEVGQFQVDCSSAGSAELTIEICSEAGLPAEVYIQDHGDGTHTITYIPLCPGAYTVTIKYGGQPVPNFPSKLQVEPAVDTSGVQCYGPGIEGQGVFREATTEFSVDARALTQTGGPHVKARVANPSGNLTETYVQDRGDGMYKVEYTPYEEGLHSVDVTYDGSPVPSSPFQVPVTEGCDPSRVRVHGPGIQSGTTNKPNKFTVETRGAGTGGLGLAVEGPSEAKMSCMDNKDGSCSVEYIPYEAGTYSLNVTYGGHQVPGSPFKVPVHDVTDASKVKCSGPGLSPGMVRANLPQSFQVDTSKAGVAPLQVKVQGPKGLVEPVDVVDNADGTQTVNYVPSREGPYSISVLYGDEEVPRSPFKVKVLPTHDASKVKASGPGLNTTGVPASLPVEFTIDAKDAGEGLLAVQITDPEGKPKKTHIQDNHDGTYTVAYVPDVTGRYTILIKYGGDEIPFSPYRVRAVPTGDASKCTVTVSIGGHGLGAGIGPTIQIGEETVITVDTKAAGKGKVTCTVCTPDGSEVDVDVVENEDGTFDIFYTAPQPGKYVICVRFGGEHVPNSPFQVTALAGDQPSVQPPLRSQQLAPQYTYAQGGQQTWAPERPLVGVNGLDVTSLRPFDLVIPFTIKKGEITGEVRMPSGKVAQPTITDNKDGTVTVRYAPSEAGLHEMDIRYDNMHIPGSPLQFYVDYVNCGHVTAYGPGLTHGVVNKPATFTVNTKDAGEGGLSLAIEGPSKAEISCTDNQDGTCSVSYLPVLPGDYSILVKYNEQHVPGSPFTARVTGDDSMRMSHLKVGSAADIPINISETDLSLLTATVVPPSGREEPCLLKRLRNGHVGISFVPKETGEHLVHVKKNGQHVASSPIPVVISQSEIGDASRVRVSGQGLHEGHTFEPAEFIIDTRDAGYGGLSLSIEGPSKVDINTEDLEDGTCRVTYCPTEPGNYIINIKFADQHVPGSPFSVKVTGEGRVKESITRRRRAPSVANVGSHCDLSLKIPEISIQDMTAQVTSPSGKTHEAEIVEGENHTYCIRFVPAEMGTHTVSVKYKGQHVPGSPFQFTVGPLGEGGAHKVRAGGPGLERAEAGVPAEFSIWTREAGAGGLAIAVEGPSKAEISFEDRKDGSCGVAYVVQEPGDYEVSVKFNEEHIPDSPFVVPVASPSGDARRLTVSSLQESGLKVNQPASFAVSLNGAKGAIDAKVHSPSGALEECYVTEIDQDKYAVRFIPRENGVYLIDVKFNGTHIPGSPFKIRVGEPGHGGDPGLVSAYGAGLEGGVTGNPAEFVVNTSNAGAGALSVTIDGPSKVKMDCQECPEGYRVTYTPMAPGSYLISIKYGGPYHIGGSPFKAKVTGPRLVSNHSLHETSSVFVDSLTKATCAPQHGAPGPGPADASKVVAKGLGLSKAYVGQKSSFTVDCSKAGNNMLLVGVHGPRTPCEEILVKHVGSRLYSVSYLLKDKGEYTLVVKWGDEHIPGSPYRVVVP

Target: FLAG-Drp1 wild-type (dynamin-related protein 1) (UniProt O00429)
Experiment: co-IP; FLAG-Drp1 immunoprecipitated from 293 T cells transfected with FLAG-Drp1 WT or EA, under normoxia or hypoxia; FLNa looked for in the precipitate

- binding: binds
Substance: filamin A (FLNa) (from UniProt P21333 1-2647)
